# According to publication doi:10.1101/2023.10.24.563883:
# T1: Flag-tagged LPHN2-GAIN (UniProt O95490)
# T1 sequence: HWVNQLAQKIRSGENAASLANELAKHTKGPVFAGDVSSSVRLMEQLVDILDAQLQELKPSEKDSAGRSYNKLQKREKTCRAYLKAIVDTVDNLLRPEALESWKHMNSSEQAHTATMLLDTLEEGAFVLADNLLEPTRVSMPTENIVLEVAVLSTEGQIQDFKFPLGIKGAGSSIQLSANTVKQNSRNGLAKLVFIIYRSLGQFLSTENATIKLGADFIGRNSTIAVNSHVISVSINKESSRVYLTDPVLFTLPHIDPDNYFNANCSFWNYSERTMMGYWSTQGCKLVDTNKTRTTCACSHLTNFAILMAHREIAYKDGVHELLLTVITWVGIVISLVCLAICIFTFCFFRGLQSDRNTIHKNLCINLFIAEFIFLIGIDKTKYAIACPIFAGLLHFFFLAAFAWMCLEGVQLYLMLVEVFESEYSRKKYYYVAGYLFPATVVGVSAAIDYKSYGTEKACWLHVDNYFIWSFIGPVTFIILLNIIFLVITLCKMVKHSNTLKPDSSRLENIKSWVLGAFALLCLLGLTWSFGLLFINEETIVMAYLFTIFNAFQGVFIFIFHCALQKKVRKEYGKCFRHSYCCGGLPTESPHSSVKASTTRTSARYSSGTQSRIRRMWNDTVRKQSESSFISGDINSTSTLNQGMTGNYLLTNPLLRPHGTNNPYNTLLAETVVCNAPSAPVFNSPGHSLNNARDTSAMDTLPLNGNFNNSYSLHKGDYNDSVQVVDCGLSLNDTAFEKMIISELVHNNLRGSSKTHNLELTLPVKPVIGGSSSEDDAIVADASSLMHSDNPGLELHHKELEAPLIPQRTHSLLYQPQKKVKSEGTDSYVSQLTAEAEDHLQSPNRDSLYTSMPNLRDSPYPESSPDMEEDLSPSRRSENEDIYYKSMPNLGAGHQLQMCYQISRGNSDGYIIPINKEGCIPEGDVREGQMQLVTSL
# B1: TMC1 (endogenous, mouse cochlea) (protein, UniProt Q8R4P5 1-757)
# chain: MLQIQVEEKEEDTEESSSEEEEDKLPRRESLRPKRKRTRDVINEDDPEPEPEDEETRKAREKERRRRLRRGAEEEEEIDEEELERLKALLDENRQMIATVKCKPWKMEKKIEVLKEAKKFVSENEGALGKGKGKKWFAFKMMMAKKWAKFLRDFENFKAACVPWENKIKAIESQFGSSVASYFLFLRWMYGVNMVLFVLTFSLIMLPEYLWGLPYGSLPRKTVPRAEEASAANFGVLYDFNGLAQYSVLFYGYYDNKRTIGWLNFRLPLSYFLVGIMCIGYSFLVVLKAMTKNIGDDGGGDDNTFNFSWKVFCSWDYLIGNPETADNKFNSITMNFKEAIIEERAAQVEENIHLIRFLRFLANFFVFLTLGASGYLIFWAVKRSQEFAQQDPDTLGWWEKNEMNMVMSLLGMFCPTLFDLFAELEDYHPLIALKWLLGRIFALLLGNLYVFILALMDEINNKIEEEKLVKANITLWEANMIKAYNESLSGLSGNTTGAPFFVHPADVPRGPCWETMVGQEFVRLTVSDVLTTYVTILIGDFLRACFVRFCNYCWCWDLEYGYPSYTEFDISGNVLALIFNQGMIWMGSFFAPSLPGINILRLHTSMYFQCWAVMCCNVPEARVFKASRSNNFYLGMLLLILFLSTMPVLYMIVSLPPSFDCGPFSGKNRMFEVIGETLEHDFPSWMAKILRQLSNPGLVIAVILVMVLTIYYLNATAKGQKAANLDLKKKMKQQALENKMRNKKMAAARAAAAAGGQ
# B2: CNGA3 (endogenous, mouse cochlea) (protein, UniProt Q9JJZ8 1-631)
# chain: MAKVNTQCSQPSPTQLSIKNADRDLDHVENGLGRVSRLIISIRAWASRHLHDEDQTPDSFLDRFHGSELKEVSTRESNAQPNPGEQKPPDGGEGRKEEPIVVDPSSNIYYRWLTAIALPVFYNWCLLVCRACFDELQSEHLTLWLVLDYSADVLYVLDMLVRARTGFLEQGLMVRDTKRLWKHYTKTLHFKLDILSLIPTDLAYLKLGVNYPELRFNRLLKFSRLFEFFDRTETRTNYPNVFRIGNLVLYTLIIIHWNACIYFAISKFIGFGTDSWVYPNTSKPEYARLSRKYIYSLYWSTLTLTTIGETPPPVKDEEYLFVVIDFLVGILIFATIVGNVGSMISNMNAPRVEFQAKIDSVKQYMQFRKVTKDLETRVIRWFDYLWANRKTVDEKEVLKNLPDKLKAEIAINVHLDTLKKVRIFQDCEAGLLVELVLKLRPTVFSPGDYICKKGDIGREMYIIKEGKLAVVADDGVTQFVVLSDGSYFGEISILNIKGSKSGNRRTANIRSIGYSDLFCLSKDDLMEALTEYPDAKRALEEKGRQILMKDNLIDEDLVAARVDTRDVEEKVEYLESSLDILQTRFARLLAEYSASQMKLKQRLTRLESQMNRRCCGFSPDRENSEDASKTD
# Biological target: T1, Flag-tagged LPHN2-GAIN
# Assay: affinity purification with mass spectrometry
row,Molecule,binding
1,"PCDH15 (endogenous, mouse cochlea) (from UniProt Q99PJ1 27-1943)",binds
2,B1,binds
3,B2,binds

# Results are given in words; binding and its absence hold for the method and conditions named. In cells and extracts the contact can be indirect. Here binding means that the protein was enriched with, or labelled near, the bait; the list need not be complete. Tags and fused reporters may be left off the sequences shown.
